Results taken from the supplement of paper PMC11348887.
Structures can show the parent of a compound that is named as a salt. The list shows a part of the results. Most entries show no effect beyond the scatter of the controls.

Experiments:
Conditions in all cases: 5 µM; treatment: days 7-14 after plating, readout day 21
[1] = system: hPSC-derived cortical neurons (WA09); assay: nucleus area z-score vs screen plate; higher = larger nuclei (more mature)
[2] = system: hPSC-derived cortical neurons (WA09); assay: total neurite length per nucleus (MAP2) z-score; higher = more neurite growth
[3] = system: hPSC-derived cortical neurons (WA09); assay: nucleus roundness z-score vs screen plate; higher = rounder nuclei (more mature)
[4] = system: hPSC-derived cortical neurons (WA09); assay: KCl-induced FOS+/EGR-1+ double-positive nuclei fraction z-score (KCl minus unstimulated); higher = stronger activity-induced IEG response

| Compound | nucleus area z-score [1] | total neurite length per nucleus (z-score) [2] | nucleus roundness z-score [3] | KCl-induced FOS+/EGR-1+ double-positive nuclei fraction z-score [4] |
| --- | --- | --- | --- | --- |
| Nc1ncnc2n[nH]c(Nc3ccc(F)cc3)c12 | 1.11 | 0.11 | -0.416 | 1.83 |
| NC(=O)c1ncn([C@@H]2O[C@H](CO)[C@@H](O)[C@H]2O)c1N [Acadesine] | 1.05 | -1.52 | -0.907 | -0.943 |
| C[C@@H]1C(=O)O[C@H]2C[C@@]34[C@H]5C[C@@H](C(C)(C)C)[C@]36[C@@H](OC(=O)[C@@H]6O)O[C@@]4(C(=O)O5)[C@]21O [Ginkgolide A] | -0.781 | -0.233 | -0.00754 | -0.376 |
| CN(C)CCOC(c1ccc(Cl)cc1)c1ccccn1 (centres undefined) [CarbinoxaMine Maleate] | 0.416 | 0.116 | -0.199 | 0.0926 |
| Cn1ncc(Cl)c1-c1cc(C(=O)N[C@H](CN)Cc2ccc(F)c(F)c2)oc1Cl | -8.94 | -4.22 | -2.45 | -1.36 |
| CC#CC(=O)N1CC[C@@H](n2c(=O)n(-c3ccc(Oc4ccccc4)cc3)c3c(N)ncnc32)C1 | 1.77 | -0.254 | -1.76 | -0.183 |
| CC(NC(=O)c1ccccc1/N=C/c1c(O)ccc2ccccc12)c1ccccc1 (centres undefined) [Sirtinol] | 0.227 | -0.907 | -1.36 | 0.537 |
| CC(=O)Oc1cccc2c1C(=O)c1c(OC(C)=O)cc(C(=O)O)cc1C2=O [Diacerein] | 0.115 | 0.438 | 0.544 | 0.864 |
| CCN1CC(CCN2CCOCC2)C(c2ccccc2)(c2ccccc2)C1=O (centres undefined) [Doxapram HCl] | 0.517 | 0.542 | 0.648 | 1.05 |
| N#Cc1ccc(COC[C@H]2O[C@@H](n3c(NCc4ccc(Cl)c(Cl)c4)nc4c(N)ncnc43)[C@H](O)[C@@H]2O)cc1 | -0.455 | 0.513 | 0.741 | 1.69 |
| Cc1cc(O)cc(C)c1Cl [Chloroxylenol] | 0.193 | 0.994 | 0.985 | -0.0497 |
| CC[C@H]1OC(=O)[C@H](C)[C@@H](O[C@H]2C[C@@](C)(OC)[C@@H](O)[C@H](C)O2)[C@H](C)[C@@H](O[C@@H]2O[C@H](C)C[C@H](N(C)C)[C@H]2O)[C@](C)(O)C[C@@H](C)CN(C)[C@H](C)[C@@H](O)[C@]1(C)O [Azithromycin Dihydrate] | -0.604 | -0.788 | -0.346 | -1.12 |
| Nc1ccc(O)c(C(=O)O)c1 [Mesalamine] | 0.933 | -0.771 | -0.662 | 0.0472 |
| Cc1c(C)c2c(c(C)c1O)CC[C@@](C)(CCC[C@H](C)CCC[C@H](C)CCCC(C)C)O2 [Vitamin E] | -1.08 | -0.141 | 0.37 | 2.28 |
| Cc1c(-c2ccc(O)cc2)n(Cc2ccc(OCCN3CCCCCC3)cc2)c2ccc(O)cc12 [Bazedoxifene Acetate] | -15.4 | -5.92 | -6.44 | -0.521 |
| CC[C@@]1(O)C(=O)OCc2c1cc1n(c2=O)Cc2cc3c(CN(C)C)c(O)ccc3nc2-1 [Topotecan HCl] | -0.468 | -1.02 | -1.08 | -0.133 |
| Cc1nc(-c2cccnc2)sc1C(=O)Nc1ccccc1-c1cn2c(CN3CCOCC3)csc2n1 | -0.429 | -0.502 | -0.409 | 0.399 |
| CCN(CC)CCOC(=O)c1ccc(N)cc1 [Procaine] | -0.804 | 0.0764 | 0.503 | 0.691 |
| N#Cc1cc2cc(CN3CCC(Nc4ncnc5sc(CC(F)(F)F)cc45)CC3)ccc2[nH]1 | -6.45 | -2.44 | -1.98 | -0.623 |
| Cc1cnc(Nc2ccc(N3CCN(C)CC3)cc2)nc1Nc1cccc(S(=O)(=O)NC(C)(C)C)c1 | -3.47 | 0.182 | -1.57 | -0.663 |
| CNC(=O)CN(CCN(CCN(CC(=O)[O-])CC(=O)NC)CC(=O)[O-])CC(=O)[O-].O.[Gd+3] [Gadodiamide Hydrate] | -0.0529 | -0.209 | -0.602 | 1.5 |
| CN(CCOc1ccc(CC2SC(=O)NC2=O)cc1)c1ccccn1 (centres undefined) [Rosiglitazone maleate] | 0.288 | -0.314 | -0.667 | 0.0472 |
| Nc1nc(N)c2nc(-c3cccc(O)c3)c(-c3cccc(O)c3)nc2n1 | -0.575 | 0.692 | 1.42 | 0.0942 |
| COc1cc(Nc2ncc(F)c(Nc3ccc4c(n3)N(COP(=O)(O)O)C(=O)C(C)(C)O4)n2)cc(OC)c1OC [Fostamatinib (R788)] | 0.765 | 0.0418 | -1.35 | -1.62 |
| Cc1cc(-c2ncc(CC(=O)Nc3ccc(-c4cnccn4)cn3)cc2C)ccn1 | 0.239 | -0.467 | -0.493 | -0.435 |
| O=C(O)c1cc(I)ccc1NC(=O)[C@H](Cc1ccccc1)NCc1ccccc1 | 2.63 | -0.471 | 0.82 | -1.09 |

Quoted at random: 2 compounds from above, in no set order.

| Compound | nucleus area z-score [1] | total neurite length per nucleus (z-score) [2] | nucleus roundness z-score [3] | KCl-induced FOS+/EGR-1+ double-positive nuclei fraction z-score [4] |
| --- | --- | --- | --- | --- |
| CCN(CC)CCOC(=O)c1ccc(N)cc1 [Procaine] | -0.804 | 0.0764 | 0.503 | 0.691 |
| CC#CC(=O)N1CC[C@@H](n2c(=O)n(-c3ccc(Oc4ccccc4)cc3)c3c(N)ncnc32)C1 | 1.77 | -0.254 | -1.76 | -0.183 |
